Measurements taken from paper PMC10163288.
Some of the results follow.

B1: il10ra_site1_sap_24_mot_HHH_b1_07219_af2_000000236_0001_1_17_H_._HHH_b1_02526_af2_0001_0000300018_0000001_0_0001 (protein)
chain: SSSSSSDAERYIRLTLRFAKRLQDPEARKFMLEAALEMAERLGDEELREEIEELIERLSSSSSSS
B2: il10ra_site1_sap_16_mot_6792f2186577ebd01aa11eb855ed7b57_0001_af2_000000149_0001_1_16_H_._HHH_b2_07280_0001_0000200007_0000001_0_0001_af2pred_0001 (protein)
chain: SSSSDVEEREKELEEELERLLEEGDDEEFLRVLREAVRLAQENGNEELLRRLMELAEEAKSSSSS
B3: il10ra_site1_normal_mot_HHH_b2_00622_af2_000000153_0001_40_57_H_._HHH_b2_06400_0001_0000200017_0000001_0_af2pred_0001 (protein)
chain: SSSSDDLQRLLEWLIKAARQLYENGNPEAAKLALRDAAAAARALGDEELLEEIERLLEEISSSSS
B4: il10ra_site1_normal_mot_HHH_b1_06994_000000193_0001_40_55_H_._HHH_b1_00400_0001_0000300011_0000001_0 (protein)
chain: SSSDKQERELVRTALRLVEQAVKAGDEETAEFLVISMEILARELNDPRLEELVEEAEELINSSSS
B5: il10ra_site1_sap_13_mot_HHH_b2_05540_000000178_0001_1_18_H_._HHH_b1_08523_0001_0000100004_0000001_0_0001 (protein)
chain: SSSSSSRSAETQLRAVEHVLKLGDEEYARLAARFLLAIARALNDPEYSEIAEEILEELNSSSSSS
B6: il10ra_site1_normal_mot_HHH_b1_02997_000000220_0001_39_52_H_._HHH_b1_01312_0001_0000400040_0000001_0_af2pred_0001 (protein)
chain: SSSSDLLEEVIELSREAAKLLAEGNPEEARKVVEEALELAEEAGDEEAELIIRFLEEQITSSSSS
B7: il10ra_site1_normal_mot_HHH_b1_00999_000000080_0001_41_55_H_._HHH_b2_02582_af2_0001_0000100004_0000001_1 (protein)
chain: SSSSSSDEFTRLAAEAVRLAFRNGDDETLREIWELVKRWGEEGDPRIEEALEELLEELSSSSSSS
B8: il10ra_site1_sap_21_mot_HHH_b2_00612_000000251_0001_1_14_H_._HHH_b1_05509_0001_0000700038_0000001_0_0001_af2pred_0001 (protein)
chain: SSSSSRAEYLLRAAELAIRYALEEGDEELAKAVFRVMKLALEKLGDEEALEELREFFEEYSSSSS
B9: il10ra_site1_normal_mot_HHH_b2_06857_af2_000000179_0001_42_54_H_._HHH_b1_03840_af2_0001_0000100002_0000003_0 (protein)
chain: SSSSDEIAQEIFELIREAAELHSNGNPEEAREVLEEAKELAEEINNHLLRFQIEFLLRLGSSSSS
B10: il10ra_site1_normal_mot_HHH_b1_05088_af2_000000046_0001_20_36_H_._HHH_b1_01942_af2_0001_0000200004_0000002_0_af2pred_0001 (protein)
chain: SSSSSDEEELEEEVERLLEEAKHVSVHERIELLREALELAKENNDPELLRLVREVVRKLVSSSSS

Biological target: il10ra, Q13651
Test: yeast display titration

Binder	apparent Kd
B1	inactive: no binding seen
B2	inactive: no binding seen
B3	inactive: no binding seen
B4	inactive: no binding seen
B5	inactive: no binding seen
B6	inactive: no binding seen
B7	inactive: no binding seen
B8	inactive: no binding seen
B9	inactive: no binding seen
B10	inactive: no binding seen

Fetched one by one from above (two):
Binder	apparent Kd
B5	inactive: no binding seen
B7	inactive: no binding seen
